For part of these data: A negative result means that nothing was seen under these conditions. For part of these data: Tags and fusion partners may be left off the protein sequences shown. For part of these data: At least one result comes from cells or an extract, where the contact may be indirect.
Assays:
[1] = target: T1, Uracil DNA N-glycosylase (UNG) (UniProt P12295); test: enzyme reaction in vitro; conditions: purified recombinant protein, protein details: Invitrogen
T1 sequence (looked up, limits assumed): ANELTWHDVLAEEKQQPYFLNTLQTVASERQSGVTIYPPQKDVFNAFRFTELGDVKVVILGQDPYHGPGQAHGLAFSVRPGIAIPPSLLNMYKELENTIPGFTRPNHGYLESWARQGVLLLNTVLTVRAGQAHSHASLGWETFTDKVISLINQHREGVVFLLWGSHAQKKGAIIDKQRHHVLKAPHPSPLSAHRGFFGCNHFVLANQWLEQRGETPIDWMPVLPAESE

Protein sequences, listed by entry. Tags and fused reporters are not part of them. Lines headed by an entry give the natural chain unless they say otherwise; changes in a name come on top.
UniProt P05549: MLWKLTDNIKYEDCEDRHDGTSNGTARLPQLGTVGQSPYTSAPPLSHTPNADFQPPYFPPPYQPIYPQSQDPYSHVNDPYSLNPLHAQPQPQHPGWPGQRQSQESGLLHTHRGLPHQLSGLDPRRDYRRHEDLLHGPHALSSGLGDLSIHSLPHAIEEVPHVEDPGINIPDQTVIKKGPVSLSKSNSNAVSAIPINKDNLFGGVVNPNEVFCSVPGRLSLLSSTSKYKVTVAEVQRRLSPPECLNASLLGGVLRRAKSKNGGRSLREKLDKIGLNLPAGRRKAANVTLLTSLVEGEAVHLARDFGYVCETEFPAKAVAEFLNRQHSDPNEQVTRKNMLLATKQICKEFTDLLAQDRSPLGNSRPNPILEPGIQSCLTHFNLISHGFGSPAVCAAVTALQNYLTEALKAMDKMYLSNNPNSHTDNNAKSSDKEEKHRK

[2] = target: AP-2 (transcription factor AP-2, 52 kDa) (Homo sapiens) (UniProt P05549); test: footprint; conditions: dU in place of T on both strands (DNA; listed as RNA in the listing); UNG protection assay; 38 bp DNA stayed intact with AP-2 extract; extract binding 30 min room temperature, UNG 1 h 37 C, Tris pH 8.0, KCl, Mg; protein in an extract; protein details: cell extract containing AP-2; variant of AP2

In the case of “AAGCTTGATCGAACTGACCGCCCGCGGCCCGTGGATCC (double strand) [AP2]”, the “activity on this sequence” value ([1]; no uracil, not degraded with or without AP-2) is reported as “not active”.
“AAGCUUGAUCGAACUGACCGCCCGCGGCCCGUGGAUCC / GGAUCCACGGGCCGCGGGCGGUCAGUUCGAUCAAGCUU [AuPu2]” was tested, and the “activity on this sequence” value ([1]; dU in place of T on both strands (DNA; listed as RNA in the listing), uracil excision then NH4OH and 65 C cleavage, two fragments produced without AP-2, variant of AP2) was “active” and the binding result [2] was “binds”.
